Experimental data from publication PMC7049810.
Results are given in words; binding and its absence hold for the method and conditions named. Some binding calls cover weakened binding; strength is not graded here.

Sequences of proteins named here, by UniProt entry; tags and fusion partners are left off. Residues count along the entry.
UniProt P0AFB1, residues 20-294: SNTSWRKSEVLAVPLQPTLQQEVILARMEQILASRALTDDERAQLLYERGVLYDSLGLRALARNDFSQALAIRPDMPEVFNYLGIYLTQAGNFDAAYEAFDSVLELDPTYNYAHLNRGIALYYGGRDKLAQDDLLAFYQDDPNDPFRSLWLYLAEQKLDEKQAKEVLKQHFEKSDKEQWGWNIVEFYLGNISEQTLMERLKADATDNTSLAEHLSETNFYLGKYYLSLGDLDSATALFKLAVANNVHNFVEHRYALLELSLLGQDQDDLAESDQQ
UniProt P24228, residues 21-477: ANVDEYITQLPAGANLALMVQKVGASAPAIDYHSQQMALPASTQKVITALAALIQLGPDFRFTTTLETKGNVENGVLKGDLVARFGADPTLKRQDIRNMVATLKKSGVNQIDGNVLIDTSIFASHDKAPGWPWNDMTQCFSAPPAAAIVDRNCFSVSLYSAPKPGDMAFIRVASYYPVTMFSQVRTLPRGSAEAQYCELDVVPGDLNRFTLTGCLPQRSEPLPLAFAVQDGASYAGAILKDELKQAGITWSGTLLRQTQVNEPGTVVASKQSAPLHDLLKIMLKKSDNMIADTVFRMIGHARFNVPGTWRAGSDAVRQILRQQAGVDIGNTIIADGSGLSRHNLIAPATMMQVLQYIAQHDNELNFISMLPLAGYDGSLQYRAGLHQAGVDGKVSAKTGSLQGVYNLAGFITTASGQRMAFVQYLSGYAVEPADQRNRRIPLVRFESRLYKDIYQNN

What was measured:
[1] = target: T1, PBP1A, purified (Escherichia coli) (UniProt P02918); experiment: MST; fixed ligand concentration assay: labelled MepS, LpoA or PBP1A with fixed unlabelled NlpI, PBP4, PBP7 or pre-formed complexes (NlpI 3 μM with 30 μM PBP4 or PBP7 for fl-MepS and fl-LpoA; PBP4 0.5 μM with NlpI 1 μM for fl-PBP1A); FNorm, or raw fluorescence for LpoA; both purified
T1 sequence (chain, NT647 RED-NHS dye on amines (PBP1A was the labelled protein in all MST assays)): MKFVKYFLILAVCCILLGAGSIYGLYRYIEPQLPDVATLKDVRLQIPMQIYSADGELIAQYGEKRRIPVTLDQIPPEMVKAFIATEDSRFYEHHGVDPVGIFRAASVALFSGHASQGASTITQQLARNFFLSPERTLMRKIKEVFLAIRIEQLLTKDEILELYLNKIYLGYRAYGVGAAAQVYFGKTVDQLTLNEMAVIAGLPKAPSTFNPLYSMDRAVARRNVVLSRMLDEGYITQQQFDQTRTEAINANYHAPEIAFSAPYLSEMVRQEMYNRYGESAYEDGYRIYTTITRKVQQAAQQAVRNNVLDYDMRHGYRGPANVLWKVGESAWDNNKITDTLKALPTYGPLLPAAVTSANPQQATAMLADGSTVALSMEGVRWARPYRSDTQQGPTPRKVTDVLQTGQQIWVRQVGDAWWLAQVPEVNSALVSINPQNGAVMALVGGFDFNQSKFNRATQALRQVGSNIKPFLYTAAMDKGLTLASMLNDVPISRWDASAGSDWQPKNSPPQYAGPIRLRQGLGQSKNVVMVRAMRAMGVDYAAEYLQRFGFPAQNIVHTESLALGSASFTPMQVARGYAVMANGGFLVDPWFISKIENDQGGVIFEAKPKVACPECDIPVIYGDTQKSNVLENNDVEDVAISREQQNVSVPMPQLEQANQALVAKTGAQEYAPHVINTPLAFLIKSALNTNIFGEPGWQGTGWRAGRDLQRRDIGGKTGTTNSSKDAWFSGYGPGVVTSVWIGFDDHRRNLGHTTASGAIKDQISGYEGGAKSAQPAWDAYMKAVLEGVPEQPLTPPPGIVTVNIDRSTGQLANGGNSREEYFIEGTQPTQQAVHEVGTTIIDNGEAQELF

[2] = target: T2, MepS (Escherichia coli) (UniProt P0AFV4); experiment: as above
T2 sequence (chain, where used as fl-MepS in MST, NT647 RED-NHS dye on amines): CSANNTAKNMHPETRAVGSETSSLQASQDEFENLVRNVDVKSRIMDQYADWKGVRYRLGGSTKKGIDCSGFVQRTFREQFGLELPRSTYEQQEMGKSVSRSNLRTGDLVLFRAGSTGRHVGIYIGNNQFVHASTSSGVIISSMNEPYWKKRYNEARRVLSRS

[3] = target: T2, MepS (Escherichia coli); experiment: MST + pull-down; endopeptidases tested against each other, 'a combination of MST and Ni2+-NTA pull-down assays'; all combinations of MepM, MepS, PBP4, PBP7; both purified
[4] = target: T1, PBP1A, purified (Escherichia coli); experiment: MST; titration: NT647-labelled protein against a two-fold serial dilution (16 steps) of unlabelled ligand; 25 mM HEPES/NaOH, 150 mM NaCl, 0.05% Triton X-100, pH 7.5; Monolith NT.115; apparent constants; for NlpI with itself: dimer to monomers; both purified

Row | binding [1] | binding [2] | binding [3] | binding [4] | Substance
1 | binds |  |  |  | pre-formed NlpI-PBP4 complex (from UniProt P0AFB1 20-294; P24228 21-477)
2 | binds | no binding (tested: 30 μM) | no binding |  | PBP4, native, purified (from UniProt P24228 21-477) (enzyme)
3 |  |  |  | no binding (tested: 50 μM) | NlpI, soluble version lacking its membrane anchor (from UniProt P0AFB1 20-294)
